Reference: PubChem BioAssay AID1671190 (National Center for Advancing Translational Sciences (NCATS), 2021)
In all, about 580,000 compounds went through this assay and about 6,100 (1.1%) were called active. Inconclusive results, whose numbers are uncertain, are shown with a selection of clear calls. Calls follow the shape of the dose curve; as a rule, active = well fitted inhibition curve with a large enough effect; inconclusive = small, poorly fitted or top-dose-only effect, or another doubt; inactive = no such curve, though single readings can be large or run the other way. A potency beside an inconclusive call is a rough fit, not a confirmed value.
Potency is read from the fitted curve at half-maximal effect.

Protein sequences, listed by entry. Tags and fused reporters are not part of them. Lines headed by an entry give the natural chain unless they say otherwise; changes in a name come on top.
UniProt P18054: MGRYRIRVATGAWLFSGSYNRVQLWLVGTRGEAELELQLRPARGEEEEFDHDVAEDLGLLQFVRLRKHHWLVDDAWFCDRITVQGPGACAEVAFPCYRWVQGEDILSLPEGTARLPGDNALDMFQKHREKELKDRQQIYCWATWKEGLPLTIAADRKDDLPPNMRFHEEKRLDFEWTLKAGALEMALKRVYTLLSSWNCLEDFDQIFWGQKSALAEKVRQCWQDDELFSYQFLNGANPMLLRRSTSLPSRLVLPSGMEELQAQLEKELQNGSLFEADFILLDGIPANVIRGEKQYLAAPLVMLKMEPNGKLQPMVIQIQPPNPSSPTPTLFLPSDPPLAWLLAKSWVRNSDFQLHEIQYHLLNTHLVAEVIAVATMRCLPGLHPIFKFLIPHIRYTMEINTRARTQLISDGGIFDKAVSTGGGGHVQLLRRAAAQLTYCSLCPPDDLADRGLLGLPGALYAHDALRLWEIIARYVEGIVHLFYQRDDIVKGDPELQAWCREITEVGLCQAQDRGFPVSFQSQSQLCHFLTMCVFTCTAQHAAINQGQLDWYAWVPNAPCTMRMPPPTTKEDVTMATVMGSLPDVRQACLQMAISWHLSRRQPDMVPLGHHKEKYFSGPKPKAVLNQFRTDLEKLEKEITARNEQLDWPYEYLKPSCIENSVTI

Each compound was assayed against Polyunsaturated fatty acid lipoxygenase ALOX12 (Homo sapiens) (UniProt P18054) (assay: Primary qHTS assay for inhibitors of human arachidonate 12S-lipoxygenase (ALOX12): Round 2). Settings: purified 12hLO, xylenol orange hydroperoxide absorbance; series mostly up to 108 µM.
How it was run: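 Purified human 12hLO (150 nM final) in 25 mM Hepes, 0.01% Triton X-100, pH 7.0 was preincubated 15 min at room temperature with compound. Then 40 uM arachidonic acid was added, 30 min. Hydroperoxide was read by Fe-XO absorbance ratio 573/405 nm.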
In the case of Cc1ccc(S(=O)(=O)N/N=C2/CC(c3ccccc3)Oc3ccccc32)cc1 (centres undefined), the Potency is reported as “inactive”. With Cc1nn(CC(O)c2cccc(F)c2)c(=O)c2ccccc12 (centres undefined) the Potency was “inactive”. For CN(C)c1cccc(C(=O)N2CCC3(CC2)NC(=O)N(Cc2ccccc2)C3=O)c1, the Potency was “inactive”. In the case of Oc1cc2c(cc1O)[C@@H]1c3ccc(O)c(O)c3OC[C@]1(O)C2, the Potency is reported as inconclusive: 31.6 µM [inhibitor, partial curve, poor fit]. CCOC(=O)[C@H]1[C@H]2COc3ccc(Cl)cc3[C@@H]2N2C(=O)CNC(=O)[C@@]12C was tested, and the Potency was “inactive”. In the case of Cn1c(=O)c2c(nc(NCCCc3ccccc3)n2Cc2ccccc2F)n(C)c1=O, the Potency is reported as “inactive”. In the case of CC1=NOC(=O)/C1=C\c1ccc(-c2ccc(Cl)c(C(=O)O)c2)o1, the Potency is reported as inconclusive: 44.7 µM [inhibitor, partial curve, poor fit]. For Cc1cc(C)cc(NC(=O)C2CC(=O)N(c3n[nH]c4cccc(F)c34)C2)c1 (centres undefined), the Potency was “inactive”. CCCn1c(C(=O)OC)cc2c1ccn2-c1ccc(F)cc1 was tested, and the Potency was inconclusive: 112 µM [inhibitor, partial curve, poor fit]. With COc1cc(/C=C/C(=O)c2ccc(O)cc2)cc(Cl)c1O the Potency was inconclusive: 10 µM [inhibitor, full curve, poor fit]. With CN1CCN(c2c([N+](=O)[O-])cnc3ccccc23)CC1 the Potency was inconclusive: 35.5 µM [inhibitor, partial curve, poor fit]. With CN(Cc1ccccc1)C(=O)c1ccc(NC(=O)Cc2ccc(NC(=O)C3CCCN(C(=O)CCc4ccccc4)C3)cc2)cc1 (centres undefined) the Potency was inconclusive: 50.1 µM [inhibitor, single point]. Cc1ccc(-c2ccc(CN3C(C(C)C)C(=O)N(Cc4cn(Cc5ccco5)nn4)CCS3(=O)=O)cc2)cc1 (centres undefined) was tested, and the Potency was active: 44.7 µM. With CC(C)NC(=O)N[C@H]1C[C@H]2C(=O)NC[C@@H](CCC(=O)N3CCN(C)CC3)N2C1 the Potency was “inactive”. NC(=O)c1ccc(-n2c(CCC(=O)O)ccc2-c2cccs2)cc1 was tested, and the Potency was “inactive”. For O=C(Nc1ccc([N+](=O)[O-])cc1)Nc1cnccn1, the Potency was “inactive”. For NC(c1ccncc1)c1ccc(Cl)cc1 (centres undefined), the Potency was inconclusive: 7.94 µM [inhibitor, full curve]. With CCOc1cc(/C=C2\NC(=S)N(c3c(C)n(C)n(-c4ccccc4)c3=O)C2=O)ccc1O the Potency was inconclusive: 20 µM [inhibitor, partial curve, poor fit]. With COc1nn(C)c2nc(C)c(CCC(=O)NC3CCCC3)c(C)c12 the Potency was “inactive”. In the case of CCOC(=O)C1CCN(c2ncnc3c2nnn3Cc2ccccc2Cl)CC1, the Potency is reported as “inactive”. For Cc1ccc(-c2cc3c(ccn3C(C)C)c(C(=O)NCc3c(C)cc(C)[nH]c3=O)n2)cn1, the Potency was “inactive”. For O=[N+]([O-])c1cc(CN2CCC(O)CC2)ccc1Cl, the Potency was inconclusive: 6.31 µM [inhibitor, full curve]. For S=c1[nH]nc(-c2ccco2)n1-c1ccc(Br)cc1, the Potency was inconclusive: 28.2 µM [inhibitor, partial curve, poor fit]. In the case of N#Cc1ccnc(N2CCN(C(=O)Nc3cccnc3)CC2)c1, the Potency is reported as “inactive”. With CCC(NC(=O)Nc1ccc(OC)c(OC)c1)c1c(-n2cccc2)sc2c1CCN(C)C2 (centres undefined) the Potency was inconclusive: 56.2 µM [inhibitor, partial curve, poor fit]. For CC(C)(C)c1coc([C@@H]2COCCN2C2CCC2)n1, the Potency was inconclusive: 141 µM [inhibitor, partial curve, poor fit]. For O=C1CCc2cc(S(=O)(=O)Nc3ccccc3F)ccc2N1, the Potency was inconclusive: 112 µM [inhibitor, single point]. In the case of COc1ccccc1C(=O)NCCSc1c(C)[nH]c2ccccc12, the Potency is reported as inconclusive: 126 µM [inhibitor, single point]. CC(C)N1C(=O)C(NC(=O)C(=O)NCCc2c[nH]c3ccc(F)cc23)c2ccccc21 (centres undefined) was tested, and the Potency was “inactive”. With Cc1ccc(NC(=O)c2cc(=O)c3ccc(C)c(C)c3o2)cc1C the Potency was inconclusive: 70.8 µM [inhibitor, partial curve, poor fit]. For O=C(O)CCCCCc1ccc(CCCCC(=O)O)s1, the Potency was inconclusive: 50.1 µM [inhibitor, single point]. In the case of O=C(OCC(=O)c1c[nH]c2ccccc12)c1ccc([N+](=O)[O-])cc1Cl, the Potency is reported as inconclusive: 5.01 µM [inhibitor, full curve]. c1coc(-c2nnc3sc(Cc4cccs4)nn23)c1 was tested, and the Potency was inconclusive: 31.6 µM [inhibitor, partial curve]. For O=c1[nH]c(C2CCN(Cc3ccc(OC(F)(F)F)cc3)CC2)nn1Cc1ccccc1, the Potency was inconclusive: 44.7 µM [inhibitor, partial curve]. With COc1ccc(CCNC(=O)c2ccc3c(c2)N=C(C)c2cc(C)ccc2S3)cc1OC the Potency was “inactive”. In the case of N#CC1=C(N)Oc2cc(O)ccc2C1c1ccc(Br)s1 (centres undefined), the Potency is reported as “inactive”. For COc1ccc(C(CNC(=O)c2ccc(S(=O)(=O)Nc3ccc(F)cc3)cc2)N(C)C)cc1 (centres undefined), the Potency was inconclusive: 112 µM [inhibitor, partial curve, poor fit]. For O=C(Cn1cnc2sccc2c1=O)N1N=C(c2ccco2)CC1c1ccco1 (centres undefined), the Potency was inconclusive: 17.8 µM [inhibitor, full curve]. In the case of O=C(/C=C/c1ccc(Br)cc1)c1cccc(O)c1, the Potency is reported as inconclusive: 56.2 µM [inhibitor, partial curve, poor fit]. c1ccc(-n2c(-c3ccncc3)nnc2-c2ccco2)cc1 was tested, and the Potency was “inactive”. For CC1=C[C@@H](CNS(C)(=O)=O)[C@H](C(C)C)C[C@H]1Cc1nnc(-c2ccccc2F)o1, the Potency was inconclusive: 7.94 µM [inhibitor, full curve]. For Cc1ccc(C(=O)N2CCC3(CC2)N(c2ccccc2)C(=O)CS3(=O)=O)c(C)c1, the Potency was “inactive”. For Cc1ccc(N2C(=O)C(Cl)=C(N3CCCCCC3)C2=O)cc1, the Potency was inconclusive: 17.8 µM [inhibitor, single point]. For CCCCNC(=O)c1[nH]c(C)c(C(C)=O)c1C, the Potency was “inactive”. COc1ccc(C(=O)Nc2c(O)ccc3ccccc23)cc1OC was tested, and the Potency was inconclusive: 44.7 µM [inhibitor, partial curve, poor fit]. In the case of CCc1nc2ccccc2c(NC(=O)CNC(C)(C)C)c1C, the Potency is reported as “inactive”. With CCOc1ccc(-n2cc(-c3ccccc3)c3c(NC4CCCCC4)ncnc32)cc1 the Potency was “inactive”. CC(=O)N(CCC(c1ccco1)C(C)C)Cc1ccc(OC(C)C)cc1 (centres undefined) was tested, and the Potency was inconclusive: 56.2 µM [inhibitor, partial curve, poor fit]. With Nc1nc(Nc2ccccc2F)nc(NCCO)c1[N+](=O)[O-] the Potency was inconclusive: 112 µM [inhibitor, single point]. In the case of Cc1cc(C(=O)NCc2ccc(F)cc2)c2c(C3CCCNC3)noc2n1 (centres undefined), the Potency is reported as inconclusive: 79.4 µM [inhibitor, partial curve, poor fit]. In the case of Cc1ncc(-c2ccc(S(=O)(=O)Nc3ccc(C)c(F)c3)cc2)o1, the Potency is reported as inconclusive: 28.2 µM [inhibitor, partial curve, poor fit]. With C=CCNc1nc(NCc2ccccc2)c(C#N)c2c1CN(C)CC2 the Potency was inconclusive: 2.51 µM [inhibitor, full curve, poor fit]. In the case of COc1ccc2c(c1)c1c(c(=O)n(-c3cccc(Cl)c3)c(=O)n1CC(=O)NCC1CCCO1)n2C (centres undefined), the Potency is reported as inconclusive: 63.1 µM [inhibitor, partial curve, poor fit]. CCN(CC(=O)NCc1cccs1)C(=O)CCC(=O)c1ccc(C)cc1 was tested, and the Potency was active: 28.2 µM. For O=C1CO[C@H]2CN(C3CCC3)C[C@H]2N1Cc1ccc(OC(F)(F)F)cc1, the Potency was inconclusive: 28.2 µM [inhibitor, full curve]. For COc1cccc(C(=O)Nc2cc(=O)n(C)c(=O)n2C)c1, the Potency was inconclusive: 56.2 µM [inhibitor, partial curve, poor fit]. C/C(=N\NC(=O)c1cc(C)[nH]n1)c1cccs1 was tested, and the Potency was “inactive”. In the case of O=C(CSc1nnc(CNC(=O)c2ccccc2)o1)c1ccccc1, the Potency is reported as “inactive”. CCC(=O)Nc1ccc2c(c1)nc(CN1CCN(C(C)=O)CC1)n2C was tested, and the Potency was inconclusive: 2.51 µM [inhibitor, full curve, poor fit]. For CC1=CC2=NC(=O)/C(=C\c3cccn3CCOc3cccc(C)c3)C(=N)N2O1, the Potency was “inactive”. With CCOCCCNCC(O)c1ccccc1 (centres undefined) the Potency was inconclusive: 2.24 µM [inhibitor, full curve]. With COC(=O)c1ccc2nc(-c3cccc(Cl)c3)c(Cc3ccccc3C(F)(F)F)n2c1 the Potency was inconclusive: 17.8 µM [inhibitor, full curve]. For COc1cc(/C=C/c2nc3ccccc3c(=O)[nH]2)ccc1O, the Potency was inconclusive: 44.7 µM [inhibitor, partial curve, poor fit]. For CCOc1ccc(Br)cc1S(=O)(=O)Nc1ncn[nH]1, the Potency was inconclusive: 112 µM [inhibitor, single point]. In the case of COc1cccc(Nc2ncc3nc(C)c(=O)n(C4CC4)c3n2)c1, the Potency is reported as inconclusive: 39.8 µM [inhibitor, single point]. For Cc1ccccc1SCC(=O)N1CCN(c2ccc(C(F)(F)F)cn2)CC1, the Potency was inconclusive: 56.2 µM [inhibitor, partial curve, poor fit]. In the case of Cc1ccccc1C(=O)Nc1cccc(-c2nc3ccccc3o2)c1, the Potency is reported as “inactive”. For COc1ccc(C(=O)Nc2cc(-c3ccccc3)nn2-c2ccccc2)cc1, the Potency was inconclusive: 141 µM [inhibitor, partial curve, poor fit]. OCCN1CCN(c2nc(NCc3ccco3)c3ccccc3n2)CC1 was tested, and the Potency was inconclusive: 50.1 µM [inhibitor, partial curve, poor fit].
